The entries are a selection whose mix differs from that of the whole data set. At the low end of the ranking the order means little.
Assays:
Assay in all cases: DAPPL (digital affinity profiling via proximity ligation, sequencing)
Conditions in all cases: 10 mM Tris-HCl pH 7.5, 50 mM NaCl, 1 mM DTT, 4% glycerol, room temperature, 30 min; GST-TFs on glutathione beads, 16-mer random dsDNA library, 0.1% …; high values mean tight binding; double strand, one strand shown; scale: fold enrichment (6-mer frequency, TF over GST control)
ETS2 = biological target: T1, ETS2 (UniProt P15036)
T1 sequence: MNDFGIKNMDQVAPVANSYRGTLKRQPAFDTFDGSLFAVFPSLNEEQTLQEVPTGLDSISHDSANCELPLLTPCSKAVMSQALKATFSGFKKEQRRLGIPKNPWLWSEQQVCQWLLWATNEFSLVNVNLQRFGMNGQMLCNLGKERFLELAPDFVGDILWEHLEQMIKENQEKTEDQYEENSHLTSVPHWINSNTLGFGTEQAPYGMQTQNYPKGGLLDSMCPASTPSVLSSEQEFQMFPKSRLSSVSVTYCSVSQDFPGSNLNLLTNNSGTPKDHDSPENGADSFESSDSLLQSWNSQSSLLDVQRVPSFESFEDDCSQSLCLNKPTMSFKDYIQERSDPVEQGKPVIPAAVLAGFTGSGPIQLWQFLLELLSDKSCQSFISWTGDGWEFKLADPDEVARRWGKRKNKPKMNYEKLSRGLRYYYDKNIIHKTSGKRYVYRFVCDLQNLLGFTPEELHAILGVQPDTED

ETV3 = biological target: T2, ETV3 (UniProt P41162-2)
T2 sequence: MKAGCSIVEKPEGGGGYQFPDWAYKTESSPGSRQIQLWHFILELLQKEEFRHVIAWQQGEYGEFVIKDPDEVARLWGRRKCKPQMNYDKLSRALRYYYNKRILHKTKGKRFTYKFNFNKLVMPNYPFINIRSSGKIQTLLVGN

ELK3 = biological target: T3, ELK3 (UniProt P41970)
T3 sequence: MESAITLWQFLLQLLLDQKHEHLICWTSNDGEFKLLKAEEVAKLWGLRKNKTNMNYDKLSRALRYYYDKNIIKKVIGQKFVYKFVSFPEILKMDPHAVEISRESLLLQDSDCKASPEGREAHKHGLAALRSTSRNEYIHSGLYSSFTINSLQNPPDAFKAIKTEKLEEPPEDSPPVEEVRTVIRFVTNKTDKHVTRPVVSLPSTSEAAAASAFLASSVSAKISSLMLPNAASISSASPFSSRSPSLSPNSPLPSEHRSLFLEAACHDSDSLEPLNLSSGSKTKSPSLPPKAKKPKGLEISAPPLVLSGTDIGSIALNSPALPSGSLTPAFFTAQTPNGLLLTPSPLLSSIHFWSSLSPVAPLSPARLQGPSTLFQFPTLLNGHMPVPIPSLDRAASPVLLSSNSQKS

Sequence	binding signal (ETS2)	binding signal (ETV3)	binding signal (ELK3)
TAGCGA	1.01	0.987	–
CTAGGC	1.01	1.09	–
GGCACT	1.24	1.29	–
TCCCAG	0.99	1.07	–
TGGGTG	1.07	1	0.976
AGTATG	1.09	0.964	0.97
ACTGAC	1.32	1.21	–
AGTATA	0.975	1	0.888
TTCGCC	1.12	1.08	–
TGGATC	0.957	0.888	–
CGAATC	0.957	0.944	0.923
TGAGCT	0.915	0.988	–
CGCAAC	0.938	0.981	0.985
TGACCG	1.55	1.53	1.47
CGCGCC	0.955	1.09	–
TGCCGG	1	1.21	–
CCGAAT	1.22	1.12	–
TGGCCC	1.12	1.03	–
AAGCGG	1.13	1.15	–

Sequence	binding signal (ETS2)	binding signal (ETV3)	binding signal (ELK3)
TCCAGC	0.981	0.951	–
CTCCAA	1.32	1.23	–
GTTGTA	1.03	1.01	0.876
ATGCTC	1.42	1.35	1.27
ATCTCA	1.14	1.13	–
TGACCC	1.38	1.39	1.4
CATCGC	1.14	–	1.23
CCTTGT	1.26	–	1.18
CCCTTA	1.34	–	1.25
AGCTGA	1.04	–	0.948
TGTTGA	1.11	–	0.943
CCTTCG	1.3	1.12	1.65
CGGTTT	1.2	1.22	1.25
AGTGAC	0.969	1.1	0.982
CAGACT	0.99	–	0.892
CTGTTC	1.44	–	1.47
AGTCCT	1.06	–	1.01
ATAGGG	1.01	0.989	1.06

Complete entries from above.
CCTTGT reads binding signal (ETS2) = 1.26; binding signal (ELK3) = 1.18
AAGCGG reads binding signal (ETS2) = 1.13; binding signal (ETV3) = 1.15

Source: PMC7862700
